Reference: US12564578B2, “Collagen P4H1 inhibitor and its use” (University of Kentucky Research Foundation, priority 2019, dated 2026)
At least one compound was matched to its structure with a doubt left.

Test system: MDA-MB-231 xenograft
Test: MDA-MB-231 xenograft, tumor growth and lung metastasis
Type: in vivo

CC(C)OC(=O)C(C)(C)Oc1ccc(C(=O)c2ccc(Cl)cc2)cc1 [Fenofibrate]
tumor size and weight (fenofibrate 40 mg/kg orally every day, compared to docetaxel alone (10 mg/kg i.p. every four days)): reduces tumor size and weight | chemoresistance and lung metastasis (in combination with Docetaxel, in animals): reduce the chemoresistance and lung metastasis
